Results of single-concentration screens

A: 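Whole-parasite assay of Trypanosoma brucei over 72 hours; the read-out is not stated. Compounds at 30 µM. Higher reads as stronger inhibition (inferred: compounds with an IC50 in retests scored well above the rest). Values scatter widely below zero; nearly all retest evidence comes from the higher of the two concentrations used. Size under these conditions: about 64,000 compounds, about 940 of them at 50% or above in at least one test.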
B: 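Cell assay of Leishmania donovani living inside macrophages; the read-out is not stated. Tested at 30 µM. Higher reads as stronger inhibition (inferred: compounds with an IC50 in retests scored well above the rest). Size under these conditions: about 69,000 compounds, about 1,000 of them at 50% or above in at least one test.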
C: 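Assay of Toxoplasma gondii numbers, read through their beta-galactosidase reporter with a colour substrate. Concentration: 10 µM. The record gives no direction; the compounds picked for IC50 retests had high values, so higher reads as fewer parasites. Size under these conditions: about 67,000 compounds, about 260 of them at 50% or above in at least one test.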

The filed quantity is “Percent Effect” (%).
The controls that fix the scale are not given in the record; negative values are as filed.
Compounds were drawn at random from those tested, without regard to their results.
A dash means the value is not listed here; it may have been measured.

| structure | A | B | C |
|---|---|---|---|
| `O=C(NCc1ccoc1)NC1CCN(c2ncccn2)CC1` | 20.75 | -27.92 | -1.01 |
| `[H][C@@]12CCCC[C@]1(O)CCN(C(=O)c1ccc3ccn(C)c3c1)C2` | -17.05 | -43.81 | -14.92 |
| `CC(C)CN1CCc2[nH]cnc2C12CCN(C(=O)c1cc[nH]n1)CC2` | -12.31 | 22.9 | - |
| `O=C(Nc1ncc[nH]1)c1cc(-c2cccnc2)n[nH]1` | -4.022 | 43.65 | -7.958 |
| `CCCn1c(SCC(N)=O)nnc1-c1csc2c1CCCC2` | -23.16 | -23.98 | -8.09 |
| `CN(C)C(=O)c1ccn(-c2ccc3ccccn23)n1` | -26.02 | -12.52 | -2.75 |
| `COCCN1CCCn2cnc(CNC(=O)N(C)C)c2C1.O=C(O)C(F)(F)F.O=C(O)C(F)(F)F` | - | 10.13 | -16.3 |
| `CCOc1ncccc1CNC(=O)c1csc(Br)c1` | -2.005 | 40.89 | 17.83 |
| `Cc1ccc(CN2CC[C@]3(C[C@H](OCc4ccccn4)CO3)C2)o1.O=C(O)C(F)(F)F.O=C(O)C(F)(F)F` | 4.871 | 1.244 | -12.66 |
| `CN(CC(=O)N(C)C(c1cccnc1)c1ccc(F)c(F)c1)C1CC1` (centres undefined) | -91.78 | -14.81 | 1.189 |
| `COCc1noc(-c2ccc(N(C)Cc3c(C)n[nH]c3C)nc2)n1` | -25.17 | 19.99 | -10.14 |
| `O=C1CN(C(=O)c2ccc(Cl)cc2)CC(O)CN1Cc1cccs1` (centres undefined) | 99.92 | -1.941 | -10.5 |
| `O=C1CCC2(CCCN(C(=O)c3cscn3)C2)CN1CCc1c[nH]cn1` (centres undefined) | 6.487 | 6.738 | 8.697 |
| `COc1cc(N2CCC(c3nccn3Cc3ccccc3)CC2)ncn1` | -16.34 | -30.17 | 3.559 |
| `CC(C)(C)c1n[nH]c(C2CN(Cc3nnc(C4CC4)o3)CCO2)n1` (centres undefined) | - | 6.806 | -14.12 |
| `Fc1cccc(CCN(c2ccc3nnnn3n2)C2CC2)c1` | -31.06 | 5.542 | -5.402 |
| `COCC(C)(NC(=O)c1cc(Cl)c(-n2cccc2)cc1OC)C(N)=O` (centres undefined) | 13.36 | -8.87 | -7.77 |
| `NC(=O)CN1CCC(NC(=O)N2CCCC2c2ccncc2)CC1` (centres undefined) | -48.32 | -12.7 | 15.64 |
| `Cn1ccnc1CN1CCCN(C(=O)c2ccc(Cl)o2)CC1` | 19.37 | 19.53 | -2.448 |
| `[H][C@]12CC[C@]([H])(CN(S(=O)(=O)c3cccnc3)C1)N(CC=C(C)C)C2` | -37.17 | 20.42 | -1.556 |
| `COc1ccc(C)cc1C(C)NC(=O)Cn1ccc(=O)n(C)c1=O` (centres undefined) | - | -2.23 | 9.182 |
| `COc1ccccc1CC(=O)N1CCC(NCc2ccccn2)CC1` | - | 15.02 | -25.35 |
| `NC(=O)c1nnn(-c2ccc(Br)cc2)n1` | 10.49 | 10.07 | 0.4435 |
| `Cc1nc(NC(=O)CCN2C(=O)c3ccccc3NC2C(C)C)sc1C` (centres undefined) | -17.57 | 21.96 | - |
| `O=C(NCCc1nncn1C1CC1)c1cnn(Cc2ccccc2)c1` | 12.19 | 6.621 | 11.26 |
| `Cc1cc(C(=O)N2CCc3ncc(CN4CCCCC4)n3CC2)no1` | -58.52 | 11.74 | 16.71 |
| `Cc1nc(C)n(CC2CN(Cc3cc(C#N)ccc3F)CCO2)n1` (centres undefined) | -15.66 | 33.42 | -3.509 |
| `CC(=O)N1CCN([C@@H]2CN(C(=O)Cc3ccccc3C)C[C@H]2O)CC1` | - | -9.833 | 1.68 |
| `CC(=O)NCc1nccnc1C1CCN(C(=O)c2cc[nH]n2)CC1` | - | 24.14 | - |
| `CCCC(C#N)NC(=O)c1cc(Br)c2c(c1)OCCO2` (centres undefined) | -4.66 | 3.892 | -13.55 |
| `CCN1C(=O)CCCC12CCCN(C(=O)c1cnccn1)C2` (centres undefined) | 11.3 | 18.6 | 8.342 |
| `Cc1occc1C(=O)N1CCn2c(COCC3CC3)cnc2C1C` (centres undefined) | 51.37 | -11.3 | 0.654 |
| `CCC(=O)Nc1nnc(CCOc2cccc(OC)c2)s1` | -27.76 | -25.19 | -0.7173 |
| `CC(C)N(C(=O)Cn1cc(Cl)cn1)c1ccccc1` | -25.12 | -13.15 | 4.36 |
| `NCC(=O)N1CCCCC1c1ccc(F)cc1` (centres undefined) | -34.94 | 2.779 | -3.048 |
| `Cc1cccc(CN2CCc3[nH]nc(C(=O)N(C)C)c3C2)n1.O=C(O)C(F)(F)F` | -16.15 | -7.105 | 5.306 |
| `COCCN1CCN(C(=O)C[C@@H]2C[C@@H](C(C)C)[C@H](CC#N)C=C2C)CC1` | -16.72 | 8.163 | -3.526 |
| `Cc1noc(C)c1-c1cccc(C2CCNCC2)n1` | -8.664 | 7.109 | 10.99 |
| `CSc1ccc(NC(=O)NCC(O)C2CC2)cc1F` (centres undefined) | -61.89 | 3.21 | 1.199 |
| `Cc1noc(C2CCC3(CCN(C(=O)c4c(C)noc4C)CC3)O2)n1` (centres undefined) | 18 | 17.99 | 1.435 |
| `FC(F)(F)c1ccc2nc([C@H]3CCN(C4CCCCC4)C3)[nH]c2c1` | 46.08 | -12.74 | -5.071 |
| `CCC(CC)C(=O)N1CCOC2(CNC2)C1` | -13.49 | -1.595 | -4.574 |
| `CN(Cc1cnn(C)c1)C(=O)NC1CCN(c2ncccn2)CC1` | -28.3 | -22.32 | 1.059 |
| `Cc1cc(CN2CCN(C(=O)NC(C)Cn3ccnc3)CC2)on1` (centres undefined) | -36.86 | -0.3838 | -2.267 |
| `CN(C)CCNc1cc(-c2ccccc2C(N)=O)c2cc[nH]c2n1` | -17.33 | -31.58 | 8.654 |
| `CS(=O)(=O)NCc1ccc(C(=O)NCc2ccc3c(c2)CCC3)o1` | -155.2 | 3.172 | -0.9541 |
| `O=C(O)C(F)(F)F.O=C(c1ccncc1)N1CCC2(CCCN(c3ncc(F)cn3)C2)C1` (centres undefined) | -79.25 | 10.97 | -20.82 |
| `O=C(O)C(F)(F)F.[H][C@]12CCN(Cc3c(C)noc3C)[C@@]1([H])CC[C@@H](COCC)O2` | 5.931 | 23.43 | 0.1232 |
| `CC(C)c1nnc2n1CCN(Cc1cc(Cl)c3c(c1)OCO3)C2` | -65.72 | -0.9339 | 7.514 |
| `Cc1nn(C)c(C)c1C1COCCN1C(=O)Cc1cccc(F)c1` (centres undefined) | -63.2 | 9.272 | -1.642 |
| `CC(=O)NCCCOc1c(C)cccc1Cl` | -15.12 | 16.58 | 14.6 |
| `COC(=O)c1cccc(CNC(=O)CC(F)(F)F)c1` | -32.45 | 26.54 | -5.436 |

3 of the entries, repeated:

{"structure": "COCCN1CCCn2cnc(CNC(=O)N(C)C)c2C1.O=C(O)C(F)(F)F.O=C(O)C(F)(F)F", "B": 10.13, "C": -16.3}
{"structure": "COCC(C)(NC(=O)c1cc(Cl)c(-n2cccc2)cc1OC)C(N)=O", "stereo": "centres undefined", "A": 13.36, "B": -8.87, "C": -7.77}
{"structure": "Cc1cc(CN2CCN(C(=O)NC(C)Cn3ccnc3)CC2)on1", "stereo": "centres undefined", "A": -36.86, "B": -0.3838, "C": -2.267}

Source: ChEMBL document CHEMBL3988442, “University of Dundee, Small-Polar-MMV Screening Library” (2021).